# Results of single-concentration screens

Values are the deposited “Percent Effect”, in %. The controls that fix the scale are not given in the record; negative values are as filed. Compounds were drawn at random from those tested, without regard to their results. A dash means the value is not listed here; it may have been measured.

A: 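Whole-parasite assay of Trypanosoma brucei over 72 hours; the read-out is not stated. Tested at 30 µM. Higher reads as stronger inhibition (inferred: compounds with an IC50 in retests scored well above the rest). Values scatter widely below zero; nearly all retest evidence comes from the higher of the two concentrations used. Size under these conditions: about 64,000 compounds, about 940 of them at 50% or above in at least one test.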
B: 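Assay of Toxoplasma gondii numbers, read through their beta-galactosidase reporter with a colour substrate. Concentration: 10 µM. The record gives no direction; the compounds picked for IC50 retests had high values, so higher reads as fewer parasites. Of about 67,000 compounds tested this way, about 260 (0.38%) reached 50% or more in at least one test.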

structure | A | B
CC(C)Nc1ncc(-c2ccncc2)c([C@@H]2CCCO2)n1 | - | 12.21%
CN(Cc1ccsc1)C(=O)Nc1cccc(N2CCOC2=O)c1 | -85.25% | -2.567%
CN1CCC/C1=N\S(=O)(=O)c1ccc(NC(=O)Cc2cccs2)cc1 | - | -3.105%
COc1cccc(-n2cc(-c3ccnc(N[C@@H](CO)C(C)C)n3)cn2)c1 | -14.3% | 32.45%
CN1CCN(c2ccc(F)cc2C(N)=O)CC1 | -54.57% | -17.45%
CC(C)CNC(=O)CN(CC(=O)NCC(C)C)S(C)(=O)=O | -18.35% | 13.58%
COc1ccccc1OC1CCN(c2nccc(N)n2)CC1 | -5.102% | 3.42%
NC(=O)CCn1ccc(NCc2cc(F)ccc2Br)n1 | -51.81% | -4.835%
OCCN1CCOC2(CCCN(c3ncccn3)C2)C1 (centres undefined) | -20.74% | -1.674%
Cc1noc(C)c1CNCC1COCc2c(-c3ccoc3)nnn2C1.O=C(O)C(F)(F)F (centres undefined) | -15.78% | -3.163%
Cc1cccc(CN2CCCC2c2cccc(CCC(=O)O)n2)c1 (centres undefined) | -27.55% | -20.33%
O=C(O)C(F)(F)F.[H][C@@]12CCN(CC3CC3)[C@@]1([H])CCN2C(=O)c1cccc(C#N)c1 | -20.72% | -2.256%
CSCC[C@@H](CO)Nc1nc(-c2ccccn2)nc2c1c(C)nn2C | -14.78% | -2.021%
CCn1c(C)nnc1CN(C)C1CCN(Cc2c(C)noc2C)C1 (centres undefined) | -32.91% | 13.97%
Cn1nc(C(=O)N2CCSCC2)cc1NC(=O)c1ccccc1 | -17.17% | -3.142%
O=C(NCCSCc1ccc(Br)s1)C1CCCN(C(=O)c2cccs2)C1 (centres undefined) | 59.17% | -24.02%
CCc1nccn1C1CCCN(C(=O)CCc2nccs2)C1 (centres undefined) | -6.341% | 4.423%
CC(C)Oc1ncnc2c1CCN(Cc1cccs1)CC2 | 41.79% | -2.457%
Cc1ccnc(C2(C)CCCN2S(=O)(=O)c2cccnc2)n1 (centres undefined) | -10.25% | -4.171%
CCN1CCC2(CC1)CN(C(=O)c1cccnc1)c1ccc(Cl)cc12.O=C(O)C(F)(F)F.O=C(O)C(F)(F)F | 4.084% | -5.392%
O=C(C1CCOCC1)N1CCN(CC2CC2)c2ncccc2C1 | -22.18% | -5.616%
[H][C@]12CC[C@]([H])(CN(CCC(=O)NCc3ccco3)C1)N(CC=C(C)C)C2 | -17.59% | 13.15%
O=C(c1ccco1)N(CC(F)(F)F)C1CCCOC1 (centres undefined) | -7.167% | -7.324%
CN(C)S(=O)(=O)N1CC(c2ccnc(Nc3ccccn3)n2)C1 | -11.28% | -3.576%
O=S1(=O)COCCN1Cc1ccc(F)cc1Cl | -18.41% | 11.98%
COc1cccc(OCC2CCCN(C(C)=O)C2)c1 (centres undefined) | -21.33% | -14.92%
O=C(CN1CCS(=O)(=O)CC1)NC1CCCc2ccccc21 (centres undefined) | -4.816% | -1.157%
[H][C@@]12CS(=O)(=O)C[C@]1([H])N(Cc1cc(Cl)cc(Cl)c1)CCN2CCC | -17.41% | 17.5%
O=C(c1ccc[nH]1)N1CCCn2cnc(COCC3CC3)c2C1 | -18.25% | -25.3%
Cc1ncnc2c1CCN(C(=O)c1ccnnc1)CC2 | 8.428% | 2.652%
COc1ccc(CNC2CCC(O)CC2)cc1OCCCC#N (centres undefined) | -30.28% | -2.97%
CC(C)=CCN1CCN(Cc2cccc(C)n2)CC1CCO (centres undefined) | -33.39% | -4.744%
Cc1ccc(CN2CCCn3c(nc(Cn4ccnc4)cc3=O)C2)o1 | -4.423% | 95.97%
CC(C)C(=O)N1CCN(C(=O)N(C)C)CC2(CC(=O)N(C)C2)C1 (centres undefined) | -32.64% | 22.82%
CCCc1cc(=O)[nH]c2nnc(SCC(=O)OCC)n12 | -8.602% | 8.281%
CCc1nnc2n1CCN(C(C(=O)NC1CC1)c1ccc(F)cc1)C2 (centres undefined) | -2.063% | 21.47%
Cc1cnc2c(c1)N(C(=O)c1ccc(=O)n(C)c1)CCO2 | -21.82% | -19.54%
Cc1cccc(CN2CCN(C(=O)c3cccnc3O)CC2)c1 | -8.3% | -18.24%
CC(C(=O)NCCN1CCOCC1)n1cncn1 (centres undefined) | 14.32% | -20.99%
CC1CN(C)CCN1C(=O)c1ccc(-n2cnnc2)cc1 (centres undefined) | -22.66% | -62.67%
CN(C)C(=O)c1csc(-c2ccoc2)n1 | -37.98% | -1.323%
NC(=O)NC(=O)CCn1ccc(-c2ccc(F)cc2)n1 | -21.97% | -6.25%
Cc1nccc(CNC(=O)NCCC(=O)N2CCCc3ccccc32)n1 | -10.1% | 1.606%
Cn1c(CN2CCCCCC2)cc(=O)c(O)c1CN1CCCC1 | -22.99% | 7.958%
O=C1CCN(CCCS(=O)(=O)c2ccc(Cl)cc2)CCN1 | 11.5% | 1.743%
O=c1cc(CN2CCCC2)nc2n1CCCN(S(=O)(=O)C1CC1)C2 | -16.11% | -13.99%
CC(C)n1ccnc1CN1CCCN(C(=O)CN(C)C2CC2)CC1 | -11.71% | -44.43%
COc1ccc(OC)c(CN2CCc3nc4ccsc4c(=O)n3CC2)c1.Cl | 12.93% | 17.46%
Cc1nc(C2CCCN(C(=O)c3ccncc3)C2)c2sccn12 (centres undefined) | -7.134% | -7.668%
CC1c2ncc(COCC3CC3)n2CCN1C(=O)c1ccnnc1 (centres undefined) | 46.53% | -0.4162%
CCOC(=O)CC(C)Nc1nc(C(C)(C)C)nc2c1cnn2C (centres undefined) | -38.37% | -11.45%
Cc1nn(CCO)c(C)c1-c1cc(C(C)(C)C)nc(N)c1C#N | 0.04143% | 13.55%
Cc1cc(N2CCC(Cc3ccccc3)CC2)ncn1 | 5.151% | 18.29%
Cc1nc(NCc2nnc(C)n2C)c2c(CC(C)C)csc2n1 | -26.92% | 30.9%
CS(=O)(=O)CCN1CC(c2ccccc2)(c2ccccc2)CCC1=O | -44.08% | 0.7587%

Once more, the final 4:

With Cc1nn(CCO)c(C)c1-c1cc(C(C)(C)C)nc(N)c1C#N the screen gave A: 0.04143%; B: 13.55%.
With Cc1cc(N2CCC(Cc3ccccc3)CC2)ncn1 the screen gave A: 5.151%; B: 18.29%.
With Cc1nc(NCc2nnc(C)n2C)c2c(CC(C)C)csc2n1 the screen gave A: -26.92%; B: 30.9%.
With CS(=O)(=O)CCN1CC(c2ccccc2)(c2ccccc2)CCC1=O the screen gave A: -44.08%; B: 0.7587%.

Data taken from ChEMBL document CHEMBL3988442, “University of Dundee, Small-Polar-MMV Screening Library” (2021).